The experiment has as its system Candida albicans. Nature of the experiment: Antifungal activity against Candida albicans ATCC 10231 at 25 ug/ml by agar diffusion method. It is filed as functional. The method in brief: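 Agar diffusion on Sabouraud's agar. Fungal strains came from the NODCAR Microbiology laboratory culture collection. Mycostatine was the reference standard.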
(In general: Agar diffusion results depend on both activity and mobility in agar.)

The sequence NYSTATIN returned an inhibition zone (IZ) of 22 mm.

The values are drawn from ChEMBL document CHEMBL1667789, “Synthesis of 4H-chromene, coumarin, 12H-chromeno[2,3-d]pyrimidine derivatives and some of their antimicrobial and cytotoxicity activities” (2011).
